Test results from PMC3360035.
Positions count from the first letter of the chain named. In names and notes the source's numbering stands. No constants are given. Whether binding was seen depends on the method and setting. Some entries that bind do so weakly or less than the wild type. Values belong to the binder of their own block, whether it stands above or below them.

Experiments:
[1] = target: Human γD-crystallin I90F (human) (UniProt P07320); test: SEC; HγD unfolded overnight in 5 M GdnHCl at 37°C, diluted 10-fold into refolding buffer (100 mM sodium phosphate, 1 mM EDTA, 5 mM DTT, pH 7.0) with αB in 5-fold molar excess (0.1 mg/ml HγD, 0.5 mg/ml αB, 0.5 M GdnHCl), 37°C; the suppression reaction then run over Superose 6; both purified
[2] = target: Human γD-crystallin I90F (human) (UniProt P07320); test: SEC; native mixing: HγD and chaperone 1:1, each 1 mg/ml in SEC buffer, 37°C with gentle rotation for 14 to 28 days; filtered (0.2 µm), Superose 6 10/300 GL; fractions checked by Western blot (αB, HγD) or Trp fluorescence; both purified
[3] = target: Human γD-crystallin I90F (human) (UniProt P07320); test: condition: only upon initial mixing (0 days), before the incubation at 37°C; SEC; native mixing as in a2 but upon initial mixing (0 days, no incubation); Superose 6 10/300 GL; both purified

binding [1]: binds | binding [2]: binds
B1: αB-crystallin, wild type (protein, UniProt P02511 1-175)
chain: MDIAIHHPWIRRPFFPFHSPSRLFDQFFGEHLLESDLFPTSTSLSPFYLRPPSFLRAPSWFDTGLSEMRLEKDRFSVNLDVKHFSPEELKVKVLGDVIEVHGKHEERQDEHGFISREFHRKYRIPADVDPLTITSSLSSDGVLTVNGPRKQVSGPERTIPITREEKPAVTAAPKK

binding [3]: no binding | binding [2]: binds
B2: αB-crystallin W9F/W60F (lacking tryptophans) (protein, UniProt P02511 1-175)
chain: B1 chain with W9F, W60F
